Some of the results follow.
How the values were obtained:
Test in all cases: log2 fold change, soluble protein after heating vs DMSO (PISA); higher = thermal stabilisation; K562 cells, 10 uM, 30 min; active = over 0.2 and 3.5 SD of the protein, either way, in both replicates (recomputed)
erlotinib = compound: C#Cc1cccc(Nc2ncnc3cc(OCCOC)c(OCCOC)cc23)c1 [erlotinib]
How it was run: (§1)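 K562 cells at 2×10^6 cells/mL were treated with 10 μM compound for 30 min. Aliquots were heated for 3 min across 48°C-58°C, pooled, and extracted in PBS with 0.5% NP-40 at 4°C; soluble protein was the supernatant after 21,000xg for 90 min. Soluble protein was quantified by TMTpro 16plex LC-MS/MS with channel sums equalised, and reported as log2 fold change in thermal stability against DMSO controls, with values from duplicates.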

Chains of the proteins cited; added tags and fusions are not shown. Lines headed by an entry give the natural chain unless they say otherwise; changes in a name come on top.
UniProt P10114: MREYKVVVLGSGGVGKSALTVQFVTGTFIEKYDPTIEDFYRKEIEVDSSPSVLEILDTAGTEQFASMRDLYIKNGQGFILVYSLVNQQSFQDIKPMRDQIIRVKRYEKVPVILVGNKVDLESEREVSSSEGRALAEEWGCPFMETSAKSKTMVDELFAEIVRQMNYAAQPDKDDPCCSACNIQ
UniProt Q9UKM9: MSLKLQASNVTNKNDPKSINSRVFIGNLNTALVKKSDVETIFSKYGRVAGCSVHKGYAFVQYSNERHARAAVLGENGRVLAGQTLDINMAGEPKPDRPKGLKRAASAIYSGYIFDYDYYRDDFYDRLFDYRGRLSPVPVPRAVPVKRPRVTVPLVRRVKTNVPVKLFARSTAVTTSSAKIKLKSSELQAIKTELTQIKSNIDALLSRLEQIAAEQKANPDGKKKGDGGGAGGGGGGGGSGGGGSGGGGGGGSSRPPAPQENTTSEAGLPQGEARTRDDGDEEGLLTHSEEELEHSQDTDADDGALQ
UniProt Q7Z6E9: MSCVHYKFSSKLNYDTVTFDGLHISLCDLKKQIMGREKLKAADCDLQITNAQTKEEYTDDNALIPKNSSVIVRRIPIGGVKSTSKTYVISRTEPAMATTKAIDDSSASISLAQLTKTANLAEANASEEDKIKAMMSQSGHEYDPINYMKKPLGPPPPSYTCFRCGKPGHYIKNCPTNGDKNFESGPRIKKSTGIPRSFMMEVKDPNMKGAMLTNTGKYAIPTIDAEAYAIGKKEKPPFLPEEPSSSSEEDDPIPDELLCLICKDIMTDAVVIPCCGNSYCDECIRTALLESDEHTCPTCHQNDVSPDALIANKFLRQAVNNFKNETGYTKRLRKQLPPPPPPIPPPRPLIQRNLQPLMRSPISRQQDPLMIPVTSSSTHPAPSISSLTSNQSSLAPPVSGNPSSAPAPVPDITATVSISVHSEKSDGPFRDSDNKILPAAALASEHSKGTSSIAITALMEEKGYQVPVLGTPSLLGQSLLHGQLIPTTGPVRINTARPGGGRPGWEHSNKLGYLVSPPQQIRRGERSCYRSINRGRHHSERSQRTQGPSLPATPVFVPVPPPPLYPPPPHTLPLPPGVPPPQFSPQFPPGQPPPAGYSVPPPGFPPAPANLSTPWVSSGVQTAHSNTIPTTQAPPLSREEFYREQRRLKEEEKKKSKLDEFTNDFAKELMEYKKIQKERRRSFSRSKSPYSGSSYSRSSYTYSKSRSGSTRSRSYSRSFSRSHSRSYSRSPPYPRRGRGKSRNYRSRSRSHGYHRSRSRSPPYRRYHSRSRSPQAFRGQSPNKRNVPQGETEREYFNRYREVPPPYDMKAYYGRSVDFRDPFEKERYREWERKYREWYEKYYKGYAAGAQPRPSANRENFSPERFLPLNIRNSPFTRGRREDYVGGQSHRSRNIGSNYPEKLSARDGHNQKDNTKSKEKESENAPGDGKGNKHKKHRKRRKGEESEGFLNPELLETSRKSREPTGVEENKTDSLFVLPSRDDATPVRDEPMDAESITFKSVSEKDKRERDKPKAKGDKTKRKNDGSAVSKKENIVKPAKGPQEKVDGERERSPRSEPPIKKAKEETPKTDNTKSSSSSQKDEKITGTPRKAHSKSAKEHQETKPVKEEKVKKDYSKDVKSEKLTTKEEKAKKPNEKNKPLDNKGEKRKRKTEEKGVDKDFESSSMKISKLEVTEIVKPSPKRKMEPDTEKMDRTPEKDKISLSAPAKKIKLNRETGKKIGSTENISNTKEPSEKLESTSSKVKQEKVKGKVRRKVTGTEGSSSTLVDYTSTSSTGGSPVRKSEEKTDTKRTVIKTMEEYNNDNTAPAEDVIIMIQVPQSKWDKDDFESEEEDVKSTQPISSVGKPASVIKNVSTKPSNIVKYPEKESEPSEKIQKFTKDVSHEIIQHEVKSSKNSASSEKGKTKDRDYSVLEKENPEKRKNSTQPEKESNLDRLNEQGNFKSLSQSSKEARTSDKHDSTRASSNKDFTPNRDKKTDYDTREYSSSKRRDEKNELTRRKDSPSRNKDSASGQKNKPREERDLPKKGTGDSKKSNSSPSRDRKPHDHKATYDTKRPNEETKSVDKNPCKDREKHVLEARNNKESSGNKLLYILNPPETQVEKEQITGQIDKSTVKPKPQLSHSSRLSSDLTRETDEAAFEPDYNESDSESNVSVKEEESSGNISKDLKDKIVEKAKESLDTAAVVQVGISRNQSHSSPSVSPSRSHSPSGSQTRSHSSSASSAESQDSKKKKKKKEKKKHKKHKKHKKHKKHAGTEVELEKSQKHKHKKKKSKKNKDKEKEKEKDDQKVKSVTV
UniProt Q13636: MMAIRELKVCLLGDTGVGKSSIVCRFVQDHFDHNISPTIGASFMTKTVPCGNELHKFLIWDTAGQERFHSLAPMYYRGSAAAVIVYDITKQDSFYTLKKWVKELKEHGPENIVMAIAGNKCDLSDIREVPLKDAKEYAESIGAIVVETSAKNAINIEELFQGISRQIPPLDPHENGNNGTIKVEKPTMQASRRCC
UniProt P98175: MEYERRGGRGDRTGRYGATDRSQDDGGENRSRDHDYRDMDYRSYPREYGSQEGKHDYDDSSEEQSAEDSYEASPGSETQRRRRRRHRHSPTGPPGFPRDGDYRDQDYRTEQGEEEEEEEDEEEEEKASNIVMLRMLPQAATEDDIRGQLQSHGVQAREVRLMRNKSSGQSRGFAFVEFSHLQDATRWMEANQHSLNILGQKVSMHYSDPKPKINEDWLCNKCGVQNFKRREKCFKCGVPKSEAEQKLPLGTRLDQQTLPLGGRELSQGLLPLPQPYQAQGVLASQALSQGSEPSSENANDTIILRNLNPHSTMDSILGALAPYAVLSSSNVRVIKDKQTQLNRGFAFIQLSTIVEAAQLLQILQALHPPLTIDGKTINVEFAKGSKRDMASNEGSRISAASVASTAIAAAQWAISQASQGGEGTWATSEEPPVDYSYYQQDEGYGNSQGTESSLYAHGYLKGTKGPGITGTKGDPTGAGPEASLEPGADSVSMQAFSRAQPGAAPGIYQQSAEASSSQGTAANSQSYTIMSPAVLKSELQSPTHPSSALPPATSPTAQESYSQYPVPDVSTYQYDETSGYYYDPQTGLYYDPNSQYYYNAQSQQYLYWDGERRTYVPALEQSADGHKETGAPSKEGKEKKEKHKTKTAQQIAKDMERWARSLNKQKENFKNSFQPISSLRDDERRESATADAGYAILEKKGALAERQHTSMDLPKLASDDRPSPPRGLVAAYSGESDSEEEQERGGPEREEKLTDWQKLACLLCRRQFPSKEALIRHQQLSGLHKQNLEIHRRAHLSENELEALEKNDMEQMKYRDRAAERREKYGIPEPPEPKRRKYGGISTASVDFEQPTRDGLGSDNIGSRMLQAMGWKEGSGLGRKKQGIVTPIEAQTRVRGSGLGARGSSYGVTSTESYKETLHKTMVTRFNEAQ
UniProt P98179: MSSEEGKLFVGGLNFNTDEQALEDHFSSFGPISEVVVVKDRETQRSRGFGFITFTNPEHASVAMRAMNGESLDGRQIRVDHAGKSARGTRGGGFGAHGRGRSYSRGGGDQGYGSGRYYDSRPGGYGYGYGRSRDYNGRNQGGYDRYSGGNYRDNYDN
UniProt Q9BTL3: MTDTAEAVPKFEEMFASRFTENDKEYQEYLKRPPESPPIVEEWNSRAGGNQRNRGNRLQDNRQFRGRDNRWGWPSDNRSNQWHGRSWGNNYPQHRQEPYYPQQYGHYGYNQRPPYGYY
UniProt P51153: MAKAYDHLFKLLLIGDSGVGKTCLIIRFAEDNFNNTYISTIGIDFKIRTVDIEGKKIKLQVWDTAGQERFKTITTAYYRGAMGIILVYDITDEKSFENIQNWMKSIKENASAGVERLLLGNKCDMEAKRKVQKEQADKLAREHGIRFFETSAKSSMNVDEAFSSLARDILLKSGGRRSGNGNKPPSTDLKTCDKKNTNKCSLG
UniProt P61106, whole entry, looked up: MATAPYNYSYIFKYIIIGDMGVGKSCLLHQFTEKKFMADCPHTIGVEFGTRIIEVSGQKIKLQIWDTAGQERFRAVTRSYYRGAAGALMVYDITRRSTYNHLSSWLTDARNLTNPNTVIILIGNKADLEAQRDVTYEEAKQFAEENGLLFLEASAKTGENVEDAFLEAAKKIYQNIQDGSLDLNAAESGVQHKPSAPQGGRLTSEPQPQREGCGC
UniProt P62820, whole entry, looked up: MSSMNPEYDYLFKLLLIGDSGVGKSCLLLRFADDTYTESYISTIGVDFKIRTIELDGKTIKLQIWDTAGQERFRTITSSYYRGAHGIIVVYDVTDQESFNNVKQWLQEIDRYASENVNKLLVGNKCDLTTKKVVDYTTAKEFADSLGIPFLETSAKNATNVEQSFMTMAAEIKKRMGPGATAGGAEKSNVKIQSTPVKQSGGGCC
UniProt P20340: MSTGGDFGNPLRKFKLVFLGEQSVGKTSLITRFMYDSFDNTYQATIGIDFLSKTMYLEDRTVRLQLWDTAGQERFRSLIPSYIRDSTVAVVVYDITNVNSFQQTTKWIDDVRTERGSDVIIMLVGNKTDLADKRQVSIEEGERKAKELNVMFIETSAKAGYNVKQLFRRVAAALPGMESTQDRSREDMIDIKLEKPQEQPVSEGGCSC
UniProt Q9NP72: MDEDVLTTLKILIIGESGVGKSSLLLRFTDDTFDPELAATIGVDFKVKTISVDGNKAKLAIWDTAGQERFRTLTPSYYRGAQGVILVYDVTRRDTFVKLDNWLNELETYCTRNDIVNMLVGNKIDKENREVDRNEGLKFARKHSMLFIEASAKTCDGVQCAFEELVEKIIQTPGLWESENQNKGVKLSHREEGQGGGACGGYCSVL
UniProt Q9H0H5: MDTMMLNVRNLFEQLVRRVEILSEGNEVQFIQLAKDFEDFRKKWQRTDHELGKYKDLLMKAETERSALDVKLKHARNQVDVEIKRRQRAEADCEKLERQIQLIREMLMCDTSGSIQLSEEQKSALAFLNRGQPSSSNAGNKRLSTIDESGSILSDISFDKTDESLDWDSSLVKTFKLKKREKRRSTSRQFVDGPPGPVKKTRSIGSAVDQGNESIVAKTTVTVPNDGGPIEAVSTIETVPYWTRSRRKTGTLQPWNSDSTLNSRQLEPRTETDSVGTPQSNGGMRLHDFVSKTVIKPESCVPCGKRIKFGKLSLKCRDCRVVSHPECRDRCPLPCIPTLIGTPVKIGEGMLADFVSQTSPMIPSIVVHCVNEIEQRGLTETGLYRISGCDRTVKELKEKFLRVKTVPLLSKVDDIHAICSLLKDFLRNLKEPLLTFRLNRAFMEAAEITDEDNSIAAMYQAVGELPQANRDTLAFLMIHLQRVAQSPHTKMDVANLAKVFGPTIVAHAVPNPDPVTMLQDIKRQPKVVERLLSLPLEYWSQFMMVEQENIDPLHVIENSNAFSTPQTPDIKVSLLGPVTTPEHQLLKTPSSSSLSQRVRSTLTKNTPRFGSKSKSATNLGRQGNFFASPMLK
UniProt Q5HYI8: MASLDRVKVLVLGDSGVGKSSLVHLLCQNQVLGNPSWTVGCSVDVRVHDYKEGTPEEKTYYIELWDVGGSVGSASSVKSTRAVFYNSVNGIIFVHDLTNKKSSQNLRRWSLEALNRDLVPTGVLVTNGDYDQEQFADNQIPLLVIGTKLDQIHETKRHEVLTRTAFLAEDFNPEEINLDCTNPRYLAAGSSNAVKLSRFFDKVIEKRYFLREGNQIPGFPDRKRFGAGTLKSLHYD

[1] = compound: C/C(=N\NC(=O)C1=CC(=CC=C1)S(=O)(=O)N2CCOCC2)/C3=C(C=CC(=C3)Cl)O
How it was run: as §1

[2] = compound: C1=CC(=C(C=C1Cl)C2=NC3=NC=CN=C3C(=N2)NC4=CC=NC=C4)F
How it was run: as §1

[3] = compound: C1=CC(=CC=C1C2=NC3=C(N2)C=C(C=C3)C(=O)N)OC4=CC=C(C=C4)Cl
How it was run: as §1

[4] = compound: C1=CC2=C(C=CC(=C2)/C=C\3/C(=O)NC(=NCC4=CC=CS4)S3)N=C1
How it was run: as §1

[5] = compound: C1=CC2=NC=CN=C2C=C1/C=C/3\C(=O)NC(=O)S3
How it was run: as §1

[6] = compound: C1=CC=C(C=C1)C2=NC(=C(N2)C3=CC=NC=C3)C4=CC(=C(C=C4)Cl)O
How it was run: as §1

[7] = compound: C1=CC=C2C(=C1)C3=NNC4=CC=CC(=C43)C2=O
How it was run: as §1

[8] = compound: C1CCN(C1)C(=O)NC2=CC=CC(=C2)NC3=NC=C(C(=N3)NCCC4=CN=CN4)Br
How it was run: as §1

[9] = compound: C1CN(CCC1(CC2=CC=C(C=C2)Cl)N)C3=NC=NC4=C3C=CN4
How it was run: as §1

Measured: log2 fold change

RAP2A (UniProt P10114)
inactive: erlotinib 0.038 | [1] -0.027 | [2] -0.007 | [3] 0 | [4] 0.008 | [5] -0.011 | [6] -0.038 | [7] -0.025 | [8] -0.026 | [9] 0.058

RAD23B (UniProt P54727)
inactive: erlotinib -0.008 | [1] -0.014 | [2] 0.036 | [3] -0.017 | [4] 0.009 | [5] -0.027 | [6] -0.036 | [7] -0.027 | [8] 0.028 | [9] 0.052

RALY (UniProt Q9UKM9)
inactive: erlotinib 0.018 | [1] -0.072 | [2] -0.541 | [3] 0.189 | [4] -0.144 | [5] 0.154 | [6] -0.11 | [7] 0.038 | [8] 0.008 | [9] -0.22

RBBP6 (UniProt Q7Z6E9)
inactive: erlotinib -0.01 | [1] 0.005 | [2] 0.014 | [3] -0.034 | [4] -0.037 | [5] 0 | [6] 0.025 | [7] -0.005 | [8] -0.067 | [9] 0.003

RAB31 (UniProt Q13636)
inactive: erlotinib -0.009 | [1] 0.026 | [2] 0.025 | [3] 0.028 | [4] -0.016 | [5] 0.01 | [6] 0.038 | [7] -0.028 | [8] 0.012 | [9] 0.02

RBM10 isoform 5 (UniProt P98175)
inactive: erlotinib -0.043 | [1] -0.003 | [2] -0.144 | [3] 0.025 | [4] -0.069 | [5] 0.091 | [6] 0.002 | [7] -0.001 | [8] -0.062 | [9] -0.039

RBM3 (UniProt P98179)
inactive: erlotinib -0.092 | [1] -0.137 | [2] -0.26 | [3] 0.037 | [4] -0.14 | [5] 0.003 | [6] -0.076 | [7] 0.029 | [8] -0.007 | [9] -0.128

RAB12, A0A3B3ITT1
inactive: erlotinib 0.01 | [1] 0.071 | [2] 0.041 | [3] -0.028 | [4] 0.02 | [5] 0.007 | [6] 0.092 | [7] -0.033 | [8] -0.036 | [9] 0.04

RAPGEF6 isoform 4 (UniProt Q8TEU7)
inactive: erlotinib -0.034 | [1] -0.018 | [2] -0.008 | [3] 0.054 | [4] 0.083 | [5] 0.209 | [6] -0.117 | [7] 0.003 | [8] 0.03 | [9] 0.203

RAMAC (UniProt Q9BTL3)
inactive: erlotinib 0.069 | [1] -0.058 | [2] -0.01 | [3] -0.045 | [4] 0.01 | [5] 0.016 | [6] -0.016 | [7] -0.046 | [8] 0.012 | [9] 0.002

RAB13 (UniProt P51153)
inactive: erlotinib -0.042 | [1] 0.156 | [2] 0.133 | [3] -0.01 | [4] -0.085 | [5] 0.024 | [6] 0.031 | [7] 0.017 | [8] -0.057 | [9] -0.03

R3HDM4 (UniProt Q96D70)
inactive: erlotinib 0.02 | [1] -0.04 | [2] -0.124 | [3] 0.068 | [4] -0.142 | [5] 0.016 | [7] 0.111 | [8] -0.031 | [9] -0.139

RAB14 (UniProt P61106)
inactive: erlotinib -0.018 | [1] 0.013 | [2] 0.025 | [3] 0.012 | [4] 0.026 | [5] 0.007 | [6] 0.053 | [7] -0.009 | [8] -0.023 | [9] 0.041

RBM26 isoform 2 (UniProt Q5T8P6)
inactive: erlotinib 0.174 | [1] 0.216 | [2] 0.25 | [3] -0.004 | [4] -0.018 | [5] 0 | [6] 0.113 | [7] 0.002 | [8] -0.027 | [9] 0.012

RAB1A (UniProt P62820)
inactive: erlotinib 0.012 | [1] -0.027 | [2] 0.064 | [3] -0.023 | [4] -0.025 | [5] 0.003 | [6] -0.018 | [7] -0.005 | [8] 0.009 | [9] 0.031

RAPGEF2, A0A2R8YGD3
inactive: erlotinib 0.027 | [1] -0.31 | [2] 0 | [3] -0.005 | [4] 0.035 | [5] 0.03 | [6] 0.058 | [7] -0.135 | [8] -0.039 | [9] 0.131

RACK1 (UniProt D6RHH4)
inactive: erlotinib 0.021 | [1] -0.206 | [2] -0.265 | [3] 0.156 | [4] 0.415 | [5] -0.262 | [7] -0.123 | [8] 0.078 | [9] 0.038

RAP1B (UniProt F5GZG1)
inactive: erlotinib 0.156 | [1] -0.007 | [2] 0.055 | [3] -0.016 | [4] 0.077 | [5] 0.024 | [7] -0.031 | [8] 0.131 | [9] 0.072

RACK1 (UniProt P63244)
inactive: erlotinib -0.059 | [1] 0.048 | [2] 0.046 | [3] 0.011 | [4] -0.027 | [5] -0.018 | [6] 0.051 | [7] -0.022 | [8] -0.005 | [9] -0.07

RAB6A isoform 2 (UniProt P20340)
inactive: erlotinib -0.005 | [1] 0.019 | [2] -0.05 | [3] -0.002 | [4] -0.003 | [5] 0.046 | [6] 0.016 | [7] -0.033 | [8] 0.004 | [9] 0.034

RABGAP1L isoform 5 (UniProt Q5R372)
inactive: erlotinib 0.114 | [1] 0.043 | [2] -0.076 | [3] 0.089 | [4] -0.007 | [5] 0.045 | [7] -0.097 | [8] 0.023 | [9] 0.016

Quoted from the results shown (2 entries):
RAB6A isoform 2 (UniProt P20340)
inactive: erlotinib -0.005 | [1] 0.019 | [2] -0.05 | [3] -0.002 | [4] -0.003 | [5] 0.046 | [6] 0.016 | [7] -0.033 | [8] 0.004 | [9] 0.034

RABGAP1L isoform 5 (UniProt Q5R372)
inactive: erlotinib 0.114 | [1] 0.043 | [2] -0.076 | [3] 0.089 | [4] -0.007 | [5] 0.045 | [7] -0.097 | [8] 0.023 | [9] 0.016

Remaining list, next part:

RAB18 (UniProt Q9NP72)
inactive: erlotinib -0.025 | [1] 0.03 | [2] 0.013 | [3] 0.012 | [4] -0.059 | [5] 0.008 | [6] -0.044 | [7] -0.036 | [8] -0.039 | [9] 0.041

RACGAP1 (UniProt Q9H0H5)
inactive: erlotinib 0.061 | [1] 0.016 | [2] 0.006 | [3] 0 | [4] 0.057 | [5] -0.071 | [6] 0.018 | [7] 0.032 | [8] -0.014 | [9] -0.179

RABL3 (UniProt Q5HYI8)
inactive: erlotinib 0.023 | [1] 0.054 | [2] 0.049 | [3] 0.018 | [4] 0.04 | [5] 0.03 | [6] -0.037 | [7] -0.033 | [8] -0.012 | [9] 0.034

RAC1 (UniProt P63000)
inactive: erlotinib -0.066 | [1] -0.062 | [2] -0.003 | [3] 0.053 | [4] -0.194 | [5] 0.015 | [6] 0.048 | [7] -0.05 | [8] 0.017 | [9] 0.005
